In PMC7819943, “Rice protein-binding microarrays: a tool to detect cis-acting elements near promoter regions in rice”:
The list shows a part of the results.

Protein sequences, listed by entry. Tags and fused reporters are not part of them.
UniProt Q0JBA9, entry or part of it: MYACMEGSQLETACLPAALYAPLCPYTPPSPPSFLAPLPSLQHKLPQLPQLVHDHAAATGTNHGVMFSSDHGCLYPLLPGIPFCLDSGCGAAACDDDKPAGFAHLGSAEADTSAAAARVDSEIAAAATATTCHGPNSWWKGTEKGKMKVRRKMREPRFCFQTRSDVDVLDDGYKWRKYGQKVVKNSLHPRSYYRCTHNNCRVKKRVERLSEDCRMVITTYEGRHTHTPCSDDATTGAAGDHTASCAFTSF

target: OsWRKY34 (Oryza sativa, UniProt Q0JBA9 1-250); assay: protein-binding microarray (RPBM); PBS, 2% BSA, 51.3 ng/ul salmon testes DNA, 50 uM zinc acetate, 200 nM TF, 25 C, 1 h; high values mean tight binding; conditions: protein: recombinant; tags: N-terminal polyhistidine and DsRed monomer fusion (pET32a); label: CyDye5-dUTP incorporated in the synthesized complementary strand; 3' TTTTT single-stranded linker to array surface; dsDNA, one strand shown
Procedure, shortened: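 In PBS with 2% BSA, salmon testes DNA and 50 µM zinc acetate, 200 nM protein was incubated on a custom Agilent array at 25 °C for 1 h and then washed off. The array had been made double-stranded by primer extension with Cy5-dUTP and blocked with 2% BSA. The proteins were transcription factors fused N-terminally to polyhistidine and DsRed, expressed in E. coli BL21-CodonPlus and purified on Ni–NTA. The binding signal is per-feature fluorescence intensity (arbitrary units) from an Axon 4000B scanner.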

In order of falling binding signal:
1. GGTGTGATTTTTGTTTGCTTGTGTTGTTACTCTGGTGCAACGGAGTCACCTAGTGCAG  14300 fluorescence intensity (a.u.)
2. CACCACCTGCACCTTGCCCTGCTTGTCGTCCTCGAATTTCCGGAGTCACCTAGTGCAG  13700 fluorescence intensity (a.u.)
3. GCCACACAGCTCTCTCTGCCGTTGTTTTCTTCCACGCGCTCGGAGTCACCTAGTGCAG  12900 fluorescence intensity (a.u.)
4. TCTACTTCCTGGTGGCCGCACGCCTCATTCTCGCTTTAGACGGAGTCACCTAGTGCAG  12300 fluorescence intensity (a.u.)
5. GCCTCACCTCATCTTTTATTTTTATTTTAATTTTTAATTTCGGAGTCACCTAGTGCAG  11900 fluorescence intensity (a.u.)
6. GTGGGAAGGGGAATGACCGTTGTGTGGTAGTTCGGGGTGGCGGAGTCACCTAGTGCAG  11100 fluorescence intensity (a.u.)
7. CCTCACCTCCGCCGCCTCCAAACCCTAACCCGCGCGCTCGCGGAGTCACCTAGTGCAG  10700 fluorescence intensity (a.u.)
8. GATTGTTGTCCTAATTAGCTTCTCCTGATCCGATATTCAACGGAGTCACCTAGTGCAG  10400 fluorescence intensity (a.u.)
9. AGGGGAGGTTCATTACTTTCGATTGGTCAACAACGCAAGCCGGAGTCACCTAGTGCAG  10400 fluorescence intensity (a.u.)
10. ACCTCCCAGCCACTGGAGCACCGGCGCGCCGCTCATCTCTCGGAGTCACCTAGTGCAG  10200 fluorescence intensity (a.u.)
11. TTTGTTTTCCTAGCCTCTCTTACGCACAGGGAGGTGGGGCCGGAGTCACCTAGTGCAG  10100 fluorescence intensity (a.u.)
12. CTGTTGTGATATTTTCTTTTTCTTTCGAGACGGTTTGTTTCGGAGTCACCTAGTGCAG  9950 fluorescence intensity (a.u.)
13. TATCGACCGTGAATATTTTATCTCCTTTCCTATTGACACTCGGAGTCACCTAGTGCAG  9840 fluorescence intensity (a.u.)
14. TCGCCTTCCGCTCTCTCGCGCGCGGTCGCGCCGCGCGCCGCGGAGTCACCTAGTGCAG  9510 fluorescence intensity (a.u.)
15. CTAACTAAACCCACCCCTATTTACTGCAACACATATTTTACGGAGTCACCTAGTGCAG  9360 fluorescence intensity (a.u.)
16. CCATCACCGCCTATCCCACGCTCACCCATCTCTTCCCATCCGGAGTCACCTAGTGCAG  9300 fluorescence intensity (a.u.)
17. TTCTAGAAATCTCTTGTGCATTTTACGGTCCTACCTCGTGCGGAGTCACCTAGTGCAG  9240 fluorescence intensity (a.u.)
18. CTATTTTTCTCATCGCCTCACCATGTTTAGTTTCTCTAGTCGGAGTCACCTAGTGCAG  8970 fluorescence intensity (a.u.)
19. ATTGAGCATTGTTTACTAATTCCCGCATCACCTAGTTTCTCGGAGTCACCTAGTGCAG  8950 fluorescence intensity (a.u.)
20. TGGTTGGTTTGACGCTACACGGTTGGTGTGCAGGTCTGCGCGGAGTCACCTAGTGCAG  8870 fluorescence intensity (a.u.)
21. CACCCACGCTAGCAATTTTCTTCTGTCAATTCCTTTCACCCGGAGTCACCTAGTGCAG  8760 fluorescence intensity (a.u.)
22. AACCTTCTCACTGATTAACACCTTAGAGTTAGTTAATAACCGGAGTCACCTAGTGCAG  8740 fluorescence intensity (a.u.)
23. AAAATCAAATCTTTTTAATTAATTAATTGCTGTTTAGTACCGGAGTCACCTAGTGCAG  8720 fluorescence intensity (a.u.)
24. GGCTGATGATGTTCTTGTTACGTTTTTAGTTTTCCTTTTTCGGAGTCACCTAGTGCAG  8580 fluorescence intensity (a.u.)
25. GTCCTGGCCAGTGGCCACTGGGGTTCCACTTGCAATTCTTCGGAGTCACCTAGTGCAG  8580 fluorescence intensity (a.u.)
26. CACCACCGCCTCTCTCTCCCCGCCTCTCGCCTATAAATACCGGAGTCACCTAGTGCAG  8580 fluorescence intensity (a.u.)
27. ATCCCCAGCCTCATCGCCGTGAACCGGTCGCCGTCCACCGCGGAGTCACCTAGTGCAG  8540 fluorescence intensity (a.u.)
28. CTATTATTGATTGCTCTACGGATGGCATGGATGGAGGTTGCGGAGTCACCTAGTGCAG  8530 fluorescence intensity (a.u.)
29. CATGAGTCATCATCTCATCTTATATGAGTCATGACCGCATCGGAGTCACCTAGTGCAG  8460 fluorescence intensity (a.u.)
30. GCTCCTGGATTGCATGCATGCACCACCTTTGTTTGCTGCTCGGAGTCACCTAGTGCAG  8400 fluorescence intensity (a.u.)
31. GTGTTATATCTGGTATTGTGGTTTAGAGACGAATTTTAGACGGAGTCACCTAGTGCAG  8340 fluorescence intensity (a.u.)
32. CCGTGAAACCAAGCGCATACACTGCTTATTTTTTTCGTCTCGGAGTCACCTAGTGCAG  8330 fluorescence intensity (a.u.)
33. TCTTTCCTTTTTTCCGTCGATTCACCATTGTTGCTTGGGGCGGAGTCACCTAGTGCAG  8310 fluorescence intensity (a.u.)
34. TCCGCGCCTCGTCGACCTCGGCTCCGGCCACCGATCGATGCGGAGTCACCTAGTGCAG  8280 fluorescence intensity (a.u.)
35. AAGATCTGGCTTGGTGCCCTACTTTTTTTTCTCTCTCTCTCGGAGTCACCTAGTGCAG  8260 fluorescence intensity (a.u.)
36. TGTTTTTCACGATTTTTCAACTCTTACCTCGTTTTCACCGCGGAGTCACCTAGTGCAG  8240 fluorescence intensity (a.u.)
37. GTTAGCGTTTTATGCATACCATTTTAATACTTCAATTCAACGGAGTCACCTAGTGCAG  8200 fluorescence intensity (a.u.)
38. CGCGCCCACCAGTCCACTCACGCGGTCACTCTCCTCCAGTCGGAGTCACCTAGTGCAG  8140 fluorescence intensity (a.u.)
39. TACTTTGTCCCAAAATGAAACTATTTTTCTACCTACCTTCCGGAGTCACCTAGTGCAG  8120 fluorescence intensity (a.u.)
40. GATTGATGCTGAACCTTTCTGCTGTTTCTTGTGCTATGTACGGAGTCACCTAGTGCAG  8110 fluorescence intensity (a.u.)
41. TGGCTGCGAACCACACACCCGATGTGTCCCCACTGCCTTTCGGAGTCACCTAGTGCAG  8100 fluorescence intensity (a.u.)
42. TGCAAGATGTAGGTGGTGTTTGAATAGATGATGAAGATGACGGAGTCACCTAGTGCAG  8090 fluorescence intensity (a.u.)
